Changes are numbered by the printed parent chain. Results are given in words; binding and its absence hold for the method and conditions named. Some entries that bind do so weakly or less than the wild type. For part of these data: Tags and fused reporters may be left off the sequences shown.
T1: mouse IL-23R-Fc fusion (R&D), chemically biotinylated (mouse) (UniProt Q8K4B4)
T1 sequence (chemically biotinylated via free amines (EZ-Link NHS-LC-Biotin), looked up): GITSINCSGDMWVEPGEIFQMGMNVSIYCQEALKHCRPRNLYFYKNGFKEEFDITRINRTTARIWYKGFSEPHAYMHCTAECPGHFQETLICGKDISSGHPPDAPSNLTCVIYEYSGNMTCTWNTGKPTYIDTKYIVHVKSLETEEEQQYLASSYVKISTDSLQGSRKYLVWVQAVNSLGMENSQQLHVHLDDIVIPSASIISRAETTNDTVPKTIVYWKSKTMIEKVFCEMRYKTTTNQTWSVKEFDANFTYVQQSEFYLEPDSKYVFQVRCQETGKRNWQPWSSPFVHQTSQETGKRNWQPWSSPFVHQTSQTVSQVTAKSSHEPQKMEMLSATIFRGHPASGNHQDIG

By UniProt entry, the sequences of proteins in these tests, tags left out. Residues count along the entry.
UniProt Q5VWK5, residues 24-355: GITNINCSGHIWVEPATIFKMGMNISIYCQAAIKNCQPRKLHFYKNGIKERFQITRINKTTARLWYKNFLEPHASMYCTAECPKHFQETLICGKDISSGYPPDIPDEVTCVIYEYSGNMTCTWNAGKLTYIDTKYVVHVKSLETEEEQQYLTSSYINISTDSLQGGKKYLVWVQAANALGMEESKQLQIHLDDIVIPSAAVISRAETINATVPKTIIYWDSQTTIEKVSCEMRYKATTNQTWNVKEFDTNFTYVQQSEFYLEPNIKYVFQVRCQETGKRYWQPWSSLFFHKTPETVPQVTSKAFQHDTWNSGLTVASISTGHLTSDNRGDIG

B1: 23R_mini_06 (designed binder)
chain: CERAEEERRRARTWEDFYKANKLC
B2: 23R_mini_04 (designed binder)
chain: CEEAEKIRRRAQTWEEFYRANQIC
B3: 23R_mini_17 (designed binder)
chain: CKVKCGPVEFQATARWMCFYWWWKYC
B4: 23R_mini_02 (designed binder)
chain: CEALEWFERVGKTWMWFYLLNTC
B5: 23R_mini_07 (designed binder)
chain: CEEARELIRNANGWKDVWKAWKYC
B6: 23R_mini_01 (designed binder)
chain: CERKEWMERLGHNWMWFYVMNTC
B7: 23R_mini_16 (designed binder)
chain: FCITCGNETFCSEWRWEAFYLCQKAR
B8: 23R_mini_05 (designed binder)
chain: CERAHEWAKRVGGWEAFYMANKLC
B9: 23R_mini_09 (designed binder)
chain: PDPNRCEDYKRRLHLRWAVLWYCRRF
B10: 23R_mini_13 (designed binder)
chain: CKVKCGPVEFQAQMNWMCFYWRWRYC
B11: 23R_mini_11 (designed binder)
chain: CRVCDNNFCVDAQWCWAAFYLLQKYK
B12: 23R_mini_10 (designed binder)
chain: FCITCNNQTFCAEWRWAAWYMCQKAR
B13: 23R_mini_03 (designed binder)
chain: CETLEWMKRQGDNWMWFYMMNYC
B14: 23R_mini_15 (designed binder)
chain: CRVCLNNFCVDAQMCWMAWYLLTKYR
B15: 23R_mini_18 (designed binder)
chain: FCITCNNQTFCAEWRWMAWYLCWRAR
B16: 23R_mini_14 (designed binder)
chain: CRVCMNNFCVDAQMCWMAFYLLNKYN
B17: 23R_mini_12 (designed binder)
chain: CRVCRNNFCVDAQWCWAAFYMLQKYN
B18: 23R_mini_14_C14 (designed binder)
chain: CRVCMNGMCVDAVECWMAYYLLNQYT
B19: 23R_mini_14_C9 (designed binder)
chain: CRVCRNNFCVDARECWMAYYLLNQYN
B20: 23R_mini_14_C2 (designed binder)
chain: CRVCKNNFCVDAQECWMAYYLLNQYT
B21: 23R_mini_14_C12 (designed binder)
chain: CRVCMNGMCVDARECWMAYYLLNQYN
B22: 23R_mini_17_C9 (designed binder)
chain: CKVKCGPVEFEATERWMCYYWLWKYC
B23: 23R_mini_17_C2 (designed binder)
chain: CKVKCGGVEFEATERWMCFYWFNKYC
B24: 23R_mini_14_C5 (designed binder)
chain: CRVCKNKFCVDAVACWMAYYLLNQYT
B25: 23R_mini_17_C4 (designed binder)
chain: CKVKCGSVEFEATERWMCYYWAWKYC
B26: 23R_mini_17_C11 (designed binder)
chain: CKVKCGPVEFEATERWMCFYWYNKYC
B27: 23R_mini_17_C3 (designed binder)
chain: CKVKCGGVEFEATERWMCFYWLWKYC
B28: 23R_mini_14_C13 (designed binder)
chain: CRVCMNGMCVDARECWMAYYLLNQYT
B29: 23R_mini_14_C17 (designed binder)
chain: CRVCMNGFCVDAVECWMAYYLLNQYT
B30: 23R_mini_14_C6 (designed binder)
chain: CRVCRNNMCVDARECWMAYYLLNQYT
B31: 23R_mini_14_C1 (designed binder)
chain: CRVCMNNMCVDARECWMAYYLLNQYN
B32: 23R_mini_14_C11 (designed binder)
chain: CRVCMNGMCVDAQECWMAYYLLNQYN
B33: 23R_mini_14_C4 (designed binder)
chain: CRVCKNGFCVDARECWMAYYLLNQYN
B34: 23R_mini_17_C1 (designed binder)
chain: CKVKCGGVEFEATERWMCYYWLWKYC
B35: 23R_mini_17_C12 (designed binder)
chain: CKLKCGGVEFEATERWMCYYWWNKYC
B36: 23R_mini_17_C10 (designed binder)
chain: CKVKCGPVEFEATERWMCFYWLWKYC
B37: 23R_mini_14_C3 (designed binder)
chain: CRVCKNGFCVDAQECWMAYYLLNQYT
B38: 23R_mini_14_C10 (designed binder)
chain: CRVCRNNFCVDAVECWMAYYLLNQYT
B39: 23R_mini_14_C18 (designed binder)
chain: CRVCMNQMCVDAQECWMAYYLLNQYT
B40: mA01 (designed binder)
chain: MEPEKYVREQVKKYYEQKLSHQEAVEEVRKYARKKGLEAWKLTWYFMQLVKREI
B41: mA02 (designed binder)
chain: B40 chain with P3E, Q10L, Q22P, V28I, T43V, E53N
B42: mA03 (designed binder)
chain: MEEEKYVRELVKKYYEGKLSHPEAVEEIRKYARKKGEEAWKLVWYFMQLVKRDI
B43: mB01 (designed binder)
chain: NLWQIFYMLVTIIKRTGDPTAKKLLKALQEAVKKYDEKAVKELAKKALKYIRS
B44: mB02 (designed binder)
chain: B43 chain with M8L, V10S, I13W, Y35N, V40T
B45: mB06 (designed binder)
chain: B43 chain with M8L, V10Q, I13L, Q29A, Y35W, L48T
B46: mB15 (designed binder)
chain: B43 chain with V10S, L25M, V32T, Y35W, V40T, L48M
B47: mB07 (designed binder)
chain: B43 chain with M8L, V10S, I13W, Q29N, V32L, Y35H
B48: mB13 (designed binder)
chain: B43 chain with M8V, Y35G, V40T
B49: mB08 (designed binder)
chain: B43 chain with M8V, V10L, V40L, L48M
B50: mB10 (designed binder)
chain: B43 chain with M8I, V40T
B51: mB09 (designed binder)
chain: B43 chain with M8Q, V10L, Y35N, L48T
B52: mB11 (designed binder)
chain: B43 chain with M8V, V10S, Y35N, V40L, L48M
B53: mB03 (designed binder)
chain: B43 chain with V10N, V32T, Y35W, V40T, L48T
B54: mB04 (designed binder)
chain: B43 chain with Q4V, M8Q, I13W, Y35N, V40T, L48T
B55: mB05 (designed binder)
chain: B43 chain with V32N, Y35W, V40T, L48M
B56: mB14 (designed binder)
chain: B43 chain with V10S, V32T, Y35W, V40T, L48T
B57: mB12 (designed binder)
chain: B43 chain with M8V, I13N, Y35G, L48T

These binders were tested against human IL-23R (hIL-23R), custom construct with C-terminal avi and his tags, biotinylated (human) (UniProt Q5VWK5) (assay: yeast display FACS).

Row | binding | Binder
1 | binds | B1
2 | binds | B2
3 | binds | B3
4 | binds | B4
5 | binds | B5
6 | binds | B6
7 | binds | B7
8 | binds | B8
9 | binds | B9
10 | binds | B10
11 | binds | B11
12 | binds | B12
13 | binds | B13
14 | binds | B14
15 | binds | B15
16 | binds | B16
17 | binds | B17

The binders below were run against human IL-23R (hIL-23R), custom construct with C-terminal avi and his tags, biotinylated (human) (UniProt Q5VWK5) (assay: yeast display FACS, SIF incubation then labeled hIL-23R).

Row | binding | Binder
18 | binds | B18
19 | binds | B19
20 | binds | B20
21 | binds | B21
22 | binds | B22
23 | binds | B23
24 | binds | B24
25 | binds | B25
26 | binds | B26
27 | binds | B27
28 | binds | B28
29 | binds | B29
30 | binds | B30
31 | binds | B31
32 | binds | B32
33 | binds | B33
34 | binds | B34
35 | binds | B35
36 | binds | B36
37 | binds | B37
38 | binds | B38
39 | binds | B39

Each binder was assayed against T1, mouse IL-23R-Fc fusion (R&D), chemically biotinylated (mouse) (assay: yeast display library screen against mouse IL-23R (m prefix)).

Row | binding | Binder
40 | binds | B40
41 | binds | B41
42 | binds | B42
43 | binds | B43
44 | binds | B44
45 | binds | B45
46 | binds | B46
47 | binds | B47
48 | binds | B48
49 | binds | B49
50 | binds | B50
51 | binds | B51
52 | binds | B52
53 | binds | B53
54 | binds | B54
55 | binds | B55
56 | binds | B56
57 | binds | B57

— US20230357323A1, “HUMAN IL23 RECEPTOR BINDING POLYPEPTIDES” (University of Washington, priority 2020, published 2023)
